Consider seven sequences from article PMC10873654.

For some of these results: No signal at the amounts used counts as a negative. Where a protein sequence is shown, tags need not be part of it.

Holding throughout (test): EMSA
For orientation: A gel shift assay detects complexes by their altered migration in electrophoresis.

In data set [1] the test system is T1, TrsA (Lactococcus plasmid pUC11B).
T1 sequence (looked up): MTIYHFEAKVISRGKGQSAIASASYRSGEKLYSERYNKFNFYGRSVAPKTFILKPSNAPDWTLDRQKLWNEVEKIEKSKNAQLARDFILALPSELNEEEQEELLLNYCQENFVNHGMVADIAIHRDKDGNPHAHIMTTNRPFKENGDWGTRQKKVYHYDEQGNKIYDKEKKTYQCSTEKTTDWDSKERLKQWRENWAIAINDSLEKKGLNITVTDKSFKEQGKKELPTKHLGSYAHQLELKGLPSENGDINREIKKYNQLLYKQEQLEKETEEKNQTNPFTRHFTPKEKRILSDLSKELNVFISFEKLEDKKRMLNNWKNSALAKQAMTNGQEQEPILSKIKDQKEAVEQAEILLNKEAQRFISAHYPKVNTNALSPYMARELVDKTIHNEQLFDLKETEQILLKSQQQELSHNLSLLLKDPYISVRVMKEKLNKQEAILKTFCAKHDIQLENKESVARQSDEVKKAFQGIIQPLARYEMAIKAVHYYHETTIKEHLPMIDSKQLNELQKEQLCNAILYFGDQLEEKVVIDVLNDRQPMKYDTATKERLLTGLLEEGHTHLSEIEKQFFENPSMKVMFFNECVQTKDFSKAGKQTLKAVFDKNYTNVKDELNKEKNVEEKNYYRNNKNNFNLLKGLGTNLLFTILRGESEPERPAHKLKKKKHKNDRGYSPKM
The conditions noted are these: 250 nM protein; 20 mM Tris-HCl (pH not stated), 10 mM MgCl2, 0.5 mM DTT, 1 mM EDTA, 100 mM KCl, 10% glycerol, poly[d(I-C)], 0.1 pmol DNA in 25 uL, 30 min at 30 C; 6% PAA gel; recombinant protein; residues 1-673; protein details: C-terminal His6; label: IRD700; probe letters rebuilt from the primers and the genome.

The subject of data set [2] is T2, TraR (Lactococcus plasmid pNP40).
T2 sequence (looked up): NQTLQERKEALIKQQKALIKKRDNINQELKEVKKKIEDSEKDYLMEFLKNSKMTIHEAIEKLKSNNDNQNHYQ
To be noted: 250 nM protein; 20 mM Tris-HCl (pH not stated), 10 mM MgCl2, 0.5 mM DTT, 1 mM EDTA, 100 mM KCl, 10% glycerol, poly[d(I-C)], 0.1 pmol DNA in 25 uL, 30 min at 30 C; 6% PAA gel; recombinant protein; residues 1-73; protein details: N-terminal His6; label: IRD700; probe letters rebuilt from the primers and the genome.

The subject of data set [3] is T3, TraAb (Lactococcus plasmid pNP40).
T3 sequence (looked up): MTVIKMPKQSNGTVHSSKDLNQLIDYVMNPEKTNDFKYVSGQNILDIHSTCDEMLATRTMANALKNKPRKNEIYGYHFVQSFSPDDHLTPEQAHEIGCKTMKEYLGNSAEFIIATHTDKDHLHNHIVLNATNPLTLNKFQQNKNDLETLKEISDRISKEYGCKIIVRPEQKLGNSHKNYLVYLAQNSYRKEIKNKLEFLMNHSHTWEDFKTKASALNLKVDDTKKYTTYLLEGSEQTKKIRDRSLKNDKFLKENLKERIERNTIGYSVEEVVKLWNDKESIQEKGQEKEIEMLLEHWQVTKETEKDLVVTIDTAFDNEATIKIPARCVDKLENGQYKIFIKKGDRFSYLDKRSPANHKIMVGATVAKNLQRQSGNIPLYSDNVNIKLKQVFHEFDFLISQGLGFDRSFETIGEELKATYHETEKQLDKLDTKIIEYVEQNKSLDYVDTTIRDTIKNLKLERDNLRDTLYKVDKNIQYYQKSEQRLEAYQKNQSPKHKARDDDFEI
The conditions noted are these: 250 nM protein; 20 mM Tris-HCl (pH not stated), 10 mM MgCl2, 0.5 mM DTT, 1 mM EDTA, 100 mM KCl, 10% glycerol, poly[d(I-C)], 0.1 pmol DNA in 25 uL, 30 min at 30 C; 6% PAA gel; recombinant protein; residues 1-505; protein details: C-terminal His6; label: IRD700; probe letters rebuilt from the primers and the genome.

Consider “AAAATCCAAGCATGAAAGTTATGTTTTTCAATGAATGTGTCCAAACGAAAGATTTTAGTAAAGCAGGCAAGCAAACATTAAAAGCTGTGTTTGATAAAAACTATACGAATGTCAAAGATGAACTTAACAAAGAAAAAAATGTGGAAGAAAAAAACTACTACCGCAACAATAAAAATAATTTCAATCTGCTCAAAGGACTAGGAACAAATCTACTCTTTACGATTTTACGAGGGGAAAGCGAACCTGAACGTCCCGCTCATAAATTGAAGAAGAAAAAGCATAAAAACGATAGAGGATACAGTCCAAAAATGTAACATTCATAATTGTGGACACCTGTCCTCATTTGTTGTATTATATAAATAACTAATCAAGAAAGGAGGGCAAGAAATGTCGAAAGATAAGTGGTTTAGCTTGAATGAAGCTAGTAGAAGTATCGGAAAAAGCAAGGGATATTTTTCAACAACTAGGACAAGACATCCAGAATACTTTC (double strand) [PR (UtrsR) fragment]”, for which the binding result in data set [1] was “binds”. Consider “CCTACTTTAACAGTTGAACTAGAAAGTACATCAGTTACATATTTCCAAGCATTAGTGTTAAAATCGGCTTCTTGTCCTCCTAAAACTTTAAATAAGTCCATAAAATGAACCTCCTAATTTCTTTTGCTAATTATTAAAACAAAACATAACTAAGGCAACAACAACTAACAAAATGATGATACTTACTAAAATCGGTGCTAATAGTGATTTAAACACAAATAACATCAGTATCAAATTCAAAATACCAGTAATTAAAGCTACCGAAATGTTTCCTTGTTTGAATAAAACAACAACAACACCAATAAGCAAAGCTAATAATACTAGTCCGCCTAACAGATACCCCATAATAGACGAATTTTGTTCCGAAAAAACGATTTTAAAGGCTCTTACAACCGCTCCGTCCGATGATGAATAGTATTCTTTCAGCTTTTCATTTAACTTATCCAAGTGTCCTAAATAATAAAACCATGCAATAACTAGAACAATTTCTCCAATCAGGACACCCTTTGCTTCTGATATGTCTTCT (double strand) [PL (UtraL) fragment]”, for which, in data set [2], the binding result is reported as “binds”. As to “CGGTTGTCTTTTTGGATAATGTTTTTGTTATCGGCTTCAAGAAATATGTTGTTATCTTCAAGCACTTTTTTTACGTCTATAGTATACAAGAATTTTTTAATTGACATGCGTTATCCCTCATTTTTAAACAAAAAAAGGTATCTTCAACTGAAAAAATAATCAGAAGAAGATACCTTAGTTTGAAGATCCATCACGTCGCTTAGTTTTTTAATGTGGCTTAGACGTTTCAACCACTCAACACGTCGCTTAGTTTTTTAATGTGGCTTAGACGTTTCAACCACTCATCTTTTTTTATCTTCTTCTATTATAAAATATTTAGTTGTAAAAAACAAGGTGAACGTTTAGTTCGGGTTTATTCGCTTTGTTCAAAGTCTTCATCAAAAAGAATTTCAGGATTATTAATTTCAGTGATTGGCTGTGTATCATAAAGGGCTTTATATTCGGGTAGTTTTTCACCTGCAATTGTTTGTATCCCTGTTTGCATGTATCCGATAAGAAAATAGTCAACGTTTGGC (double strand) [PAR (UtrsAR) fragment]”, the binding result in data set [1] is given as “no binding”. On the same count and under the same terms, with “GAACAGTTAGAACGCTATAAAGAAAGAATCACAGAGTATCACGCTTATCGTCTTAAACAGCAAGAGGAAACAAAGCAGGCGGAAGATACAGCTTTTCAAACACAGGAACAAGCAGACAAAAAAGAAGCTTCTAAAGCCAACGAAACCATTACTGACGAACAAAAAGCTTATCTAAAAAAACGCGAAGCTTTACTTGCAGATATGCAGGAGCAAGAACAAGAGCAAGCCCCTGAATTACCTAAAGAAAGTCCATTAGAAGTGGCAGAAGAAGACACGACAAAAGAACCTGAAATAGCTGAACAGTCAGATTTAATGTTTGAAAATGAAACAGAAAACCGTTCATATTCTGACTATTACGCTACCGAAGATTCCCCTACTGCAATTAATTTTGAAAGTGAAGATGAATAGAATGGAGTGTAAACAATGAAAAAAATAATAAGCGGAGTGCTTCTAATTGTCCTTGTATGTTTTGGATTGAGTGCTTGCGGTAAAAAAGAATTTAGTTTCAATGGAGAGTGGAATTTAAAAG (double strand) [P22 (Utrs22) fragment]” the entry was “no binding”. On to “GATACCTGTTTCTTTCATCATCAATTTAATTCTTTCGTTCTCTTTTTCATTTACGAAGAACCTTTTTAAAATATTTCTTTCACGATTTTTGATTTTTTTCATCTTGTCAACCTCTCAAATTTCTGTCAACTCTAAAAGCTCAAAATAGGGGGTTAGTGTCTTTAGCGAGCTTAGTAAGTGTAGCCACACTTACAGTAAAAAGTATTCATCTTTCACTCACAAAAGCTAAAATTTTCAATTTTATTTTTGTTCGTTTCAGACGAATCTTTTTATTTTTGGTGGTGTCCCCCAATCCCCCTTTTTTTTAAAATTAATTCTCATAATTTATATTTTTTGGAAAATTAATTTCAAATTCTTTTAAGACATCTTCGTATAAATCTTTGACTTCAAAACACAAATTTTTAACTTCCTCTTCGGTCAAAGTTTGAACATATTTTTTTGCGTCAATGTAATGATTTAATTCTTCTTTATCAATTAAATCTAATTGTTCCTGTATCATTTCTTCT (double strand) [PAa (UtraAa) fragment]”, for which, in data set [3], the binding result is reported as “binds”.

Take “GCGTTCACTGTATAATTTTTCCCCACTACGATAAGAGGCGCTAGCAATTGCAGACTGTCCTTTCCCTCTTGAAATAACTTTAGCTTCAAAATGATAAATAGTCATAAGAAGTGTTCTCCTTTCTTTTTTATTTTTTACACGAGCAAAGCGAGTTTTTTCAACACGTTCAATCTGAAAGATTGGCAATTTATACCATGATTTTTCATGGTATATAAGTGCGCCCTTATATCTTATAGGGATATTTTACCACTTTTTATTAGTATTTTGTACTTATCTGTCTTTTGCCTTATTTTGTTGCATTTGATAGAATATAATTATCAATAAGTGTTTCAAATAAGAAAGGACTAGGAAGTTATGGCAAAGAAAAAAAGCTTGGAAGATTTACAAAAAGAATTAGCAAAGAAACAAGAAGACATTAAAATTATCAATAGAAAAATTGGACAACAAAAACGATACATTAATACTCGTATTGGAGAAG (double strand) [PA (UtrsA) fragment]”: the binding result in data set [1] is “binds”. For the sequence “GTGTCTTTCACGCTGAATGGGTTTATATTCAAGTATTTAGTGTGTGGGTAGCTATTTCATATTTAACAGTCGATAATAACATGATTAACGACTATTTAAAACGTGTCGGTTATGAATTTACAAATTTAATCATTGCTGTTTCCGCTATGGCGGGTATTATCGAACTTCTAGCCAAAAAGAATATCGGTGCAGGTGATGTGATGTTGATAATTGGTTTAGGTTTTGTCGAAATTAAAGGAGCAGGCATTGCCAACGTTATTTTTGGTGGACGACCAAGTGGCGGTTTGATGAGAGGTATCTCTTCTACTGTTTCCAACGCTACTCGAATGTTTAAAAAATAAAAAAGTCTTGCATGTAAAAAGGCAGATACACGCAAGACAACAGAAAGGACATACCGAAGTATGCACATTGTTATTTTAGCAGAAAAACCCAATCAAGCCAAAGATATTTCACAGATATTCAAGAATGTGAAACGAAATAATGGCTATTATGAAATTACAGACAATGATTTTTTCCCAAACG (double strand) [P24 (Utrs24) fragment]”, the binding result in data set [1] is “no binding”.
